Reference: paper PMC9475448, “What a difference a methylene makes: replacing Glu with Asp or Aad in the Lys-urea-Glu pharmacophore of PSMA-targeting radioligands to reduce kidney and salivary gland uptake” (Theranostics, 2022)

How the values were obtained:
LNCaP tumor-bearing mice = test: PET/CT imaging of 68Ga-labeled ligands; assay type: in vivo; settings: for Visualization of tumor xenografts in PET images: 1 h post-injection
[1] = tested on: LNCaP tumor and major mouse organs/tissues; test: Radiation dosimetry calculation with OLINDA software from biodistribution data; settings: for Organ doses: 25-g mouse
Source text: The biodistribution data (available in the Supplemental Table s 5- 6) were used to determine the kinetics input values required by OLINDA. First, each of the values was decayed to its corresponding time point (the values on the table are shown at injection time). Then the different time-points of the uptake data (%IA/g) for each organ were fitted to both mono- exponential ( ) and bi-exponential ( ) functions using in-house software developed in Python. The best fit was selected based on maximizing the coefficient of determination (R2) of the fit and minimizing the residuals. The areas under the curves were analytically calculated based on the parameters obtained from the best fit of each organ and this provided the kinetic input values required by OLINDA.
In the mouse case, the adrenals, blood, fat, and muscle are not modeled in the phantom. These organs were grouped together and included in what OLINDA calls the remainder of the body .
Lastly, the numbers of decays in the tumors were also calculated based on the biodistribution data of the mice and the values were inputted into the sphere model available in OLINDA.

[2] = target organ Remainder of the body
[3] = target organ Urinary bladder wall

## O=C([O-])CN1CCN(CC(=O)[O-])CCN(CC(=O)NCC2CCC(C(=O)NC(Cc3c4ccccc4cc4ccccc34)C(=O)NCCCCC(NC(=O)NC(CC(=O)O)C(=O)O)C(=O)O)CC2)CCN(CC(=O)[O-])CC1.[68Ga+3] (centres unmarked) [[^68Ga]Ga-HTK03161]
LNCaP tumor-bearing mice
  Visualization of tumor xenografts in PET images: clearly visualized

## O=C([O-])CN1CCN(CC(=O)[O-])CCN(CC(=O)NCC2CCC(C(=O)NC(Cc3c4ccccc4cc4ccccc34)C(=O)NCCCCC(NC(=O)NC(CCCC(=O)O)C(=O)O)C(=O)O)CC2)CCN(CC(=O)[O-])CC1.[68Ga+3] (centres unmarked) [[^68Ga]Ga-HTK03149]
LNCaP tumor-bearing mice
  Visualization of tumor xenografts in PET images: clearly visualized
LNCaP tumor-bearing mice; co-injection of DCFPyL (0.5 mg)
  Tumor uptake in PET image with blocking: close to the background level

## [^177Lu]Lu-PSMA-617
[1]; sphere/tumor volume 0.01 mL
  Radiation dose, unit density sphere model for LNCaP tumors: 3.07E+04 mGy/MBq
[1]; sphere/tumor volume 0.1 mL
  Radiation dose, unit density sphere model for LNCaP tumors: 3.21E+03 mGy/MBq
[1]; sphere/tumor volume 0.5 mL
  Radiation dose, unit density sphere model for LNCaP tumors: 6.51E+02 mGy/MBq
[1]; sphere/tumor volume 1 mL
  Radiation dose, unit density sphere model for LNCaP tumors: 3.28E+02 mGy/MBq
[1]; sphere/tumor volume 2 mL
  Radiation dose, unit density sphere model for LNCaP tumors: 1.65E+02 mGy/MBq
[1]; sphere/tumor volume 4 mL
  Radiation dose, unit density sphere model for LNCaP tumors: 8.28E+01 mGy/MBq
[1]; sphere/tumor volume 6 mL
  Radiation dose, unit density sphere model for LNCaP tumors: 5.53E+01 mGy/MBq
[1]; sphere/tumor volume 8 mL
  Radiation dose, unit density sphere model for LNCaP tumors: 4.15E+01 mGy/MBq
[1]; sphere/tumor volume 10 mL
  Radiation dose, unit density sphere model for LNCaP tumors: 3.33E+01 mGy/MBq
[1]; sphere/tumor volume 20 mL
  Radiation dose, unit density sphere model for LNCaP tumors: 1.67E+01 mGy/MBq
[1]; sphere/tumor volume 40 mL
  Radiation dose, unit density sphere model for LNCaP tumors: 8.38E+00 mGy/MBq
[1]; sphere/tumor volume 60 mL
  Radiation dose, unit density sphere model for LNCaP tumors: 5.60E+00 mGy/MBq
[1]; sphere/tumor volume 80 mL
  Radiation dose, unit density sphere model for LNCaP tumors: 4.21E+00 mGy/MBq
[1]; sphere/tumor volume 100 mL
  Radiation dose, unit density sphere model for LNCaP tumors: 3.37E+00 mGy/MBq
[1]; sphere/tumor volume 300 mL
  Radiation dose, unit density sphere model for LNCaP tumors: 1.13E+00 mGy/MBq
[1]; sphere/tumor volume 400 mL
  Radiation dose, unit density sphere model for LNCaP tumors: 8.54E-01 mGy/MBq
[1]; sphere/tumor volume 500 mL
  Radiation dose, unit density sphere model for LNCaP tumors: 6.85E-01 mGy/MBq
[1]; sphere/tumor volume 600 mL
  Radiation dose, unit density sphere model for LNCaP tumors: 5.72E-01 mGy/MBq
[1]; sphere/tumor volume 1000 mL
  Radiation dose, unit density sphere model for LNCaP tumors: 3.45E-01 mGy/MBq
[1]; sphere/tumor volume 2000 mL
  Radiation dose, unit density sphere model for LNCaP tumors: 1.75E-01 mGy/MBq
[1]; sphere/tumor volume 3000 mL
  Radiation dose, unit density sphere model for LNCaP tumors: 1.17E-01 mGy/MBq
[1]; sphere/tumor volume 4000 mL
  Radiation dose, unit density sphere model for LNCaP tumors: 8.86E-02 mGy/MBq
[1]; sphere/tumor volume 5000 mL
  Radiation dose, unit density sphere model for LNCaP tumors: 7.12E-02 mGy/MBq
[1]; sphere/tumor volume 6000 mL
  Radiation dose, unit density sphere model for LNCaP tumors: 5.96E-02 mGy/MBq
[1]; target organ Brain
  Organ doses: 1.79E+00 mGy/MBq
[1]; target organ Heart
  Organ doses: 1.90E+00 mGy/MBq
[1]; target organ Kidneys
  Organ doses: 2.23E+02 mGy/MBq
[1]; target organ Large intestine
  Organ doses: 2.42E+00 mGy/MBq
[1]; target organ Liver
  Organ doses: 3.84E+00 mGy/MBq
[1]; target organ Lungs
  Organ doses: 4.46E+00 mGy/MBq
[1]; target organ Pancreas
  Organ doses: 3.60E+00 mGy/MBq
[1]; [2]
  Organ doses: 6.89E+00 mGy/MBq
[1]; target organ Skeleton
  Organ doses: 1.25E+00 mGy/MBq
[1]; target organ Small intestine
  Organ doses: 2.08E+00 mGy/MBq
[1]; target organ Spleen
  Organ doses: 1.15E+01 mGy/MBq
[1]; target organ Stomach wall
  Organ doses: 1.51E+00 mGy/MBq
[1]; target organ Testes
  Organ doses: 3.04E+00 mGy/MBq
[1]; target organ Thyroid
  Organ doses: 2.78E+00 mGy/MBq
[1]; [3]
  Organ doses: 5.76E+02 mGy/MBq

## O=C([O-])CN1CCN(CC(=O)[O-])CCN(CC(=O)NCC2CCC(C(=O)NC(Cc3c4ccccc4cc4ccccc34)C(=O)NCCCCC(NC(=O)NC(CCCC(=O)O)C(=O)O)C(=O)O)CC2)CCN(CC(=O)[O-])CC1.[177Lu+3] (centres unmarked) [[^177Lu]Lu-HTK03149]
[1]
  Decrease in kidney absorbed dose compared to [177Lu]Lu-PSMA-617: 70%
  Increase in tumor-to-kidney absorbed dose ratio compared to [177Lu]Lu-PSMA-617: 7.1 fold
[1]; LNCaP tumors, regardless of sphere size
  Increase in tumor absorbed dose compared to [177Lu]Lu-PSMA-617: 145%
[1]; intestines, stomach, heart, liver, lungs, pancreas, skeleton, spleen, testes and thyroid
  Absorbed dose ratio [177Lu]Lu-HTK03149-to-[177Lu]Lu-PSMA-617: 1.64 - 10.4
[1]; kidneys
  Absorbed dose ratio [177Lu]Lu-HTK03149-to-[177Lu]Lu-PSMA-617: 0.30
[1]; sphere/tumor volume 0.01 mL
  Radiation dose, unit density sphere model for LNCaP tumors: 7.53E+04 mGy/MBq
[1]; sphere/tumor volume 0.1 mL
  Radiation dose, unit density sphere model for LNCaP tumors: 7.87E+03 mGy/MBq
[1]; sphere/tumor volume 0.5 mL
  Radiation dose, unit density sphere model for LNCaP tumors: 1.60E+03 mGy/MBq
[1]; sphere/tumor volume 1 mL
  Radiation dose, unit density sphere model for LNCaP tumors: 8.06E+02 mGy/MBq
[1]; sphere/tumor volume 2 mL
  Radiation dose, unit density sphere model for LNCaP tumors: 4.05E+02 mGy/MBq
[1]; sphere/tumor volume 4 mL
  Radiation dose, unit density sphere model for LNCaP tumors: 2.03E+02 mGy/MBq
[1]; sphere/tumor volume 6 mL
  Radiation dose, unit density sphere model for LNCaP tumors: 1.36E+02 mGy/MBq
[1]; sphere/tumor volume 8 mL
  Radiation dose, unit density sphere model for LNCaP tumors: 1.02E+02 mGy/MBq
[1]; sphere/tumor volume 10 mL
  Radiation dose, unit density sphere model for LNCaP tumors: 8.17E+01 mGy/MBq
[1]; sphere/tumor volume 20 mL
  Radiation dose, unit density sphere model for LNCaP tumors: 4.10E+01 mGy/MBq
[1]; sphere/tumor volume 40 mL
  Radiation dose, unit density sphere model for LNCaP tumors: 2.06E+01 mGy/MBq
[1]; sphere/tumor volume 60 mL
  Radiation dose, unit density sphere model for LNCaP tumors: 1.37E+01 mGy/MBq
[1]; sphere/tumor volume 80 mL
  Radiation dose, unit density sphere model for LNCaP tumors: 1.03E+01 mGy/MBq
[1]; sphere/tumor volume 100 mL
  Radiation dose, unit density sphere model for LNCaP tumors: 8.28E+00 mGy/MBq
[1]; sphere/tumor volume 300 mL
  Radiation dose, unit density sphere model for LNCaP tumors: 2.79E+00 mGy/MBq
[1]; sphere/tumor volume 400 mL
  Radiation dose, unit density sphere model for LNCaP tumors: 2.10E+00 mGy/MBq
[1]; sphere/tumor volume 500 mL
  Radiation dose, unit density sphere model for LNCaP tumors: 1.68E+00 mGy/MBq
[1]; sphere/tumor volume 600 mL
  Radiation dose, unit density sphere model for LNCaP tumors: 1.40E+00 mGy/MBq
[1]; sphere/tumor volume 1000 mL
  Radiation dose, unit density sphere model for LNCaP tumors: 8.48E-01 mGy/MBq
[1]; sphere/tumor volume 2000 mL
  Radiation dose, unit density sphere model for LNCaP tumors: 4.29E-01 mGy/MBq
[1]; sphere/tumor volume 3000 mL
  Radiation dose, unit density sphere model for LNCaP tumors: 2.88E-01 mGy/MBq
[1]; sphere/tumor volume 4000 mL
  Radiation dose, unit density sphere model for LNCaP tumors: 2.17E-01 mGy/MBq
[1]; sphere/tumor volume 5000 mL
  Radiation dose, unit density sphere model for LNCaP tumors: 1.75E-01 mGy/MBq
[1]; sphere/tumor volume 6000 mL
  Radiation dose, unit density sphere model for LNCaP tumors: 1.46E-01 mGy/MBq
[1]; target organ Brain
  Organ doses: 2.35E+00 mGy/MBq
[1]; target organ Heart
  Organ doses: 9.38E+00 mGy/MBq
[1]; target organ Kidneys
  Organ doses: 6.72E+01 mGy/MBq
[1]; target organ Large intestine
  Organ doses: 1.59E+01 mGy/MBq
[1]; target organ Liver
  Organ doses: 2.09E+01 mGy/MBq
[1]; target organ Lungs
  Organ doses: 1.62E+01 mGy/MBq
[1]; target organ Pancreas
  Organ doses: 7.72E+00 mGy/MBq
[1]; [2]
  Organ doses: 8.95E+00 mGy/MBq
[1]; target organ Skeleton
  Organ doses: 7.45E+00 mGy/MBq
[1]; target organ Small intestine
  Organ doses: 1.57E+01 mGy/MBq
[1]; target organ Spleen
  Organ doses: 1.89E+01 mGy/MBq
[1]; target organ Stomach wall
  Organ doses: 1.57E+01 mGy/MBq
[1]; target organ Testes
  Organ doses: 8.72E+00 mGy/MBq
[1]; target organ Thyroid
  Organ doses: 1.29E+01 mGy/MBq
[1]; [3]
  Organ doses: 5.84E+02 mGy/MBq
